Laboratory results published in PubChem BioAssay AID2685 (National Center for Advancing Translational Sciences (NCATS), 2010).
Some of the results follow. Further columns of the screen follow, without active or inactive calls. Most of these compounds were active or inconclusive in the main read-out, so they are no random draw. The note in brackets gives the kind of curve behind each potency; many fits are weak.

Assay: qHTS Assay for Lipid Storage Modulators in Drosophila S3 Cells;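 on cell number change: cells counted by Cell Tracker Red CMTPX staining in the red channel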
Conditions: BODIPY lipid droplet fluorescence, 18-24 h; for cell number change: measured here: cell count max response, cells fed with added oleic acid
Method in brief: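 Drosophila S3 cells loaded with oleic acid (400 uM, as added) and compounds at several concentrations; lipid droplets imaged by 488-nm laser-scanning cytometry, 500–530 nm intensity and object ratio to cell channel. Percent activity normalized to 20 uM Triacsin C.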

[1] = measured here: lipid fluorescence (Fed channel) AC50, cells fed with added oleic acid
[2] = measured here: cell number channel AC50, cells fed with added oleic acid

SMILES	cell number change [%]	AC50 [1]	AC50 [2]
CC12CCC(=O)N1C(C(=O)NNC(=O)c1ccccc1Cl)CS2 (stereo unspecified)	18.9	29.1 µM [falling, single point]	
Cc1ccccc1NS(=O)(=O)c1cc2c3c(c1)CC(=O)N3CCC2	29.7	0.13 µM [falling, single point]	
CCCN(CCC)C(=O)c1c(C)[nH]c(C(=O)OCC)c1C	9.62	2.91 µM [rising, single point]	
COc1cc(C2SCC(=O)N2CCN2CCCCC2)ccc1O (stereo unspecified)	9.55	0.116 µM [rising, full curve, poor fit]	
Cc1ccc(-c2cc(N)n[nH]2)cc1	24.7	20.6 µM [rising, single point]	1.64 µM [rising, full curve, poor fit]
CCC(CC)c1nnc(NC(=O)CCNC(=O)c2ccccc2Cl)s1	62	16.4 µM [rising, single point]	29.1 µM [rising, single point]
CCOC(=O)/C(C#N)=C/c1cn(CCC(=O)O)nc1-c1cccc(Br)c1	-12.6	0.00461 µM [falling, full curve, poor fit]	
COc1ccc(C(=O)/C=C2/c3ccccc3CC(C)(C)N2C)cc1	3.22	29.1 µM [rising, single point]	
CCC(=O)NC(c1ccc(C)cc1)c1cc([N+](=O)[O-])c2cccnc2c1O (stereo unspecified)	5.8	3.26 µM [falling, single point]	4.11 µM [falling, single point]
CC(C)[C@H](NC(=O)NCCC1=CCCCC1)C(=O)O	15.3	4.61 µM [falling, partial curve]	
O=C(O)CC(C(=O)OCCOc1ccccc1)N1CCOCC1 (stereo unspecified)	-7.82	6.51 µM [falling, single point]	
O=C(CN1CCN(c2ccc(F)cc2)CC1)Nc1nnc(-c2ccccc2)s1	24.1	2.91 µM [rising, partial curve, poor fit]	
CCCn1c(N)c(C(=O)CSc2nnc(C3CC3)n2Cc2ccccc2)c(=O)n(C)c1=O	-8.42		
O=C1OC2(CCCCC2)CC2=C1C1O[C@](c3ccsc3)(Cc3ccccc31)O2	-0.291	0.668 µM [falling, single point]	
COCCCn1c(-c2ccsc2)nc2c1c(=O)[nH]c(=O)n2Cc1ccccc1	-8.74	20.6 µM [rising, single point]	
COC(=O)c1c(NC(=O)Nc2ccc(Cl)cc2)sc(C)c1C	-37.6	0.461 µM [rising, full curve]	
COc1ccccc1/C=C(/C(=O)OCC(=O)Nc1ccccc1C)c1ccccc1	-23	0.411 µM [falling, partial curve, poor fit]	0.731 µM [rising, partial curve, poor fit]
CC1CCN(C(=O)c2ccc(N3C(=O)c4ccccc4C3=O)cc2)CC1	-7.69	29.1 µM [rising, single point]	
COc1ccc2c(c1)c1nc3ccccc3nc1n2CC(=O)OC(C)C		0.731 µM [rising, full curve]	1.3 µM [rising, full curve]
CCC(Oc1ccccc1OC)C(=O)Nc1ccc2c(c1)OCCO2 (stereo unspecified)	33.3		

Three entries from above in a different format:
SMILES | cell number change [%] | AC50 [1] | AC50 [2]
COC(=O)c1c(NC(=O)Nc2ccc(Cl)cc2)sc(C)c1C | -37.6 | 0.461 µM [rising, full curve] | 
COc1ccccc1/C=C(/C(=O)OCC(=O)Nc1ccccc1C)c1ccccc1 | -23 | 0.411 µM [falling, partial curve, poor fit] | 0.731 µM [rising, partial curve, poor fit]
CC1CCN(C(=O)c2ccc(N3C(=O)c4ccccc4C3=O)cc2)CC1 | -7.69 | 29.1 µM [rising, single point] | 

(more compounds)

SMILES	cell number change [%]	AC50 [1]	AC50 [2]
COc1ccccc1NC(=O)NC(N)=O	125		16.4 µM [rising, partial curve]
Cc1ccccc1N=C1NN=C(c2ccccc2F)CS1	12.5	0.411 µM [falling, partial curve]	
OCC[C@H]1C[C@@H](O)[C@H](O)[C@]2(OCCc3ccccc32)O1	-17	18.4 µM [falling, single point]	
O=C(COC(=O)C1CC(=O)N(Cc2ccco2)C1)c1ccc(OC(=O)c2ccco2)cc1 (stereo unspecified)	-34.1	25.9 µM [falling, single point]	25.9 µM [falling, single point]
CC1CC(C)CN(S(=O)(=O)c2ccc3c(c2)oc(=O)n3CC(=O)N(C)Cc2ccccc2)C1 (stereo unspecified)	9.28	16.4 µM [falling, partial curve]	
Cc1ccc(C=C2C(Cl)=C(Cl)C(Cl)=C2Cl)cc1	-24.3	5.8 µM [falling, full curve]	
CCOC(=O)c1cnc2ccc(C(=O)OC)cc2c1Nc1cccc(C(=O)O)c1	30	29.1 µM [rising, single point]	7.31 µM [rising, partial curve, poor fit]
COCCn1c(SCC(=O)Nc2ccc(C(N)=O)cc2)nc2c([nH]c3ccccc32)c1=O	18.2	29.1 µM [rising, single point]	
OCC[C@H]1C[C@@H](O)[C@H](O)[C@]2(OCc3ccccc32)O1	-5.36	3.66 µM [rising, full curve]	
CC(C)Sc1ncnc2c1oc1ccccc12	-42.1		29.1 µM [falling, single point]
CCCOc1ccc(-c2nc(=S)[nH][nH]2)cc1			6.51 µM [falling, single point]
CS(=O)(=O)N1CCc2cc(C(=O)N3CCN(c4ccccc4)CC3)ccc21	3.88	0.92 µM [rising, partial curve]	
Cc1noc(C)c1C(=O)Nc1nc2ccccc2s1	-87.3	0.00731 µM [falling, full curve, poor fit]	10.3 µM [falling, partial curve, poor fit]
NC(=O)c1cccn1Cc1cccc(Cl)c1		6.51 µM [falling, partial curve, poor fit]	0.00517 µM [falling, full curve, poor fit]
Cc1ccc(C2OC3=C(C(=O)CC(C)(C)C3)C(N)=C2C#N)o1 (stereo unspecified)	-19.4		0.291 µM [falling, partial curve, poor fit]
CCOC(=O)c1c(NC(=O)c2cccs2)sc(C)c1CC	-14.1	4.11 µM [rising, single point]	
COc1cc(CC(=O)NCc2cccs2)cc(OC)c1OC	36.5		20.6 µM [rising, single point]
Cc1cc(C)c2[nH]c(=O)c(CN(CC3CCCO3)C(=S)NCc3ccco3)cc2c1 (stereo unspecified)	11.7	0.291 µM [rising, full curve]	4.11 µM [rising, single point]
Clc1cccc(Cl)c1/C=N/Nc1c(Cl)cncc1Cl	10.9	0.731 µM [falling, single point]	0.731 µM [falling, single point]
O=C(c1cc(NC(=O)C23CC4CC(CC(C4)C2)C3)cc(NC(=O)C23CC4CC(CC(C4)C2)C3)c1)N1CCCCC1	-12.9	4.11 µM [falling, full curve, poor fit]	

SMILES	cell number change [%]	AC50 [1]	AC50 [2]
Cc1ccc(-n2nc(C)c3c2OC(N)=C(C#N)C3c2ccncc2)cc1 (stereo unspecified)	-0.544		
Cc1ccccc1CNC(=O)c1ccccc1	3.71	0.58 µM [rising, single point]	
CSC1=NC(C)(C)C=C(/C=C/c2ccc(Cl)cc2Cl)N1	-4.56		
CC(C)=C1SC(N2CCN(c3ccc(C)c(Cl)c3)CC2)=NC1=O	4.16	0.517 µM [rising, full curve]	
COc1cccc(-n2cnnc2SCC(=O)NC2CC2)c1	-4.4	0.731 µM [falling, full curve, poor fit]	
CN(C)c1ccc2nsnc2c1[N+](=O)[O-]	17.7		
Clc1ccccc1/C=C/C=N/Nc1nc(N2CCOCC2)nc(N2CCOCC2)n1	-5.35		
CCC(=O)NC(=S)Nc1ccc(NC(=O)COc2ccc(Cl)c(C)c2)cc1	27.2	29.1 µM [rising, single point]	
CCOc1ccc(NC(=O)c2[nH]c(C)c(C(C)=O)c2C)cc1	-23.4		4.11 µM [falling, single point]
O=S(=O)(Nc1ccc(N2CCOCC2)cc1)c1cc(Cl)ccc1Cl	-15.8		
COc1ccc(N2CC(C(=O)OCC(=O)Nc3ccccc3C)CC2=O)cc1 (stereo unspecified)	-10.4	0.13 µM [falling, full curve, poor fit]	
Cc1ccc(OCCNS(=O)(=O)c2cccs2)cc1	-40.5	16.4 µM [falling, single point]	11.6 µM [falling, partial curve]
C[C@H](NS(=O)(=O)c1ccc2c(c1)OCCCO2)C(=O)N1CCN(c2ccc(F)cc2)CC1	-7.9		0.103 µM [falling, full curve, poor fit]
CCOc1cccc(OCCCOc2ccccc2)c1	-2.87	6.51 µM [falling, single point]	
O=[N+]([O-])c1ccc(/C=C/c2ccc3ccccc3n2)cc1	-13.1		6.51 µM [rising, single point]
Cc1cc(C)c(S(=O)(=O)N2CCN(C(=O)C3COc4ccccc4O3)CC2)c(C)c1 (stereo unspecified)	0.125	0.259 µM [falling, full curve, poor fit]	
COc1ccc(NC(=O)CNC(=O)C2CCCCC2)cc1	-1.49	29.1 µM [rising, single point]	
Nc1c2c(nn1-c1ccc(F)cc1)CSC2	38.2	16.4 µM [rising, single point]	20.6 µM [rising, partial curve, poor fit]
CCC(CC)C(=O)c1c[nH]c(C(=O)NCCc2ccccn2)c1	75	29.1 µM [rising, single point]	
